Values quoted from earlier work as cited in patent publication US11542545B2, “Microfluidic measurements of the response of an organism to a drug” (priority 2014, dated 2023).

Test system: E. coli isolates
Details: RNA target; cited from earlier work

O=C(O)c1cn(C2CC2)c2cc(N3CCNCC3)c(F)cc2c1=O [ciprofloxacin]
Response to Ciprofloxacin: EcHS_A3606 feoB ferrous iron transport protein B: down-regulated
